Results deposited as PubChem BioAssay AID1053208 (Peter MacCallum Cancer Centre, 2014).

Screen: 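Synthetic lethal interactions between gene loss and doxorubicin in osteosarcoma cells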 (primary screen)
Cell system: mouse osteosarcoma cells, early-passage culture from an engineered mouse model of fibroblastic bone tumour
Reagent: siRNA pool against mouse genes, 40 nM
Time to read-out: about 120 h (48 h before drug, then 72 h with drug)
Conditions: doxorubicin 100 nM for 72 h, roughly 30-40% inhibitory dose
Detection: 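Luminescent ATP signal taken as viability with or without 100 nM doxorubicin for 72 h; mean of two wells set against non-targeting siRNA and turned into robust z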
Scale: viability z-score with doxorubicin: higher = more viable cells under doxorubicin; viability z-score without drug: higher = more viable cells with knock-down alone
Active means: 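a pool counts as active when its viability z-score with doxorubicin is -2 or below and its z-score without drug lies between -2 and 2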
The deposit covers about 17,000 reagents; below is a random part of them. 788 of them (4.7%) were called active. 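Calls rest on z-score classes alone; an extra cut-off of viability at most 70% of control was not applied to them.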 Unmarked entries are inactive. Further read-outs or replicates are left out here.

Target gene	combined z-score class	viability z-score with doxorubicin	viability z-score without drug
Setx (senataxin)	no change with or without drug	0.67	-0.84
Ccl24 (C-C motif chemokine ligand 24)	no change with or without drug	0.22	-0.84
Rad51d (RAD51 paralog D)	no change with or without drug	0.22	-1.18
Ccl28 (C-C motif chemokine ligand 28)	no change with or without drug	-0.45	-0.17
Prkcz (protein kinase C, zeta)	no change with or without drug	1.35	0.67
Tfeb (transcription factor EB)	no change with or without drug	0.45	1.18
Rhou (ras homolog family member U)	no change with or without drug	-0.22	0.84
Ecsit (ECSIT signalling integrator)	no change with or without drug	-1.46	1.85
Rnf115 (ring finger protein 115)	no change with or without drug	0.67	1.85
Hnrnpr (heterogeneous nuclear ribonucleoprotein R)	no change with or without drug	0.45	0.51
Rps4l (ribosomal protein S4-like)	no change with or without drug	0.22	-0.51
Angptl4 (angiopoietin-like 4)	low cell count with and without drug	-2.7	-2.7
Timp1 (tissue inhibitor of metalloproteinase 1)	no change with or without drug	0.22	-0.17
Mtnap1 (mitochondrial nucleoid associated protein 1)	no change with or without drug	0.34	0.84
Eef1b2 (eukaryotic translation elongation factor 1 beta 2)	no change with or without drug	0.45	0.67
Rela (Rela proto-oncogene, NFKB subunit)	no change with or without drug	-0.45	0.34
Gjc3 (gap junction protein, gamma 3)	no change with or without drug	0.67	1.69

Part of the list above, reduced to “combined z-score class”.
Rnf115 (ring finger protein 115)	no change with or without drug
Hnrnpr (heterogeneous nuclear ribonucleoprotein R)	no change with or without drug
Rps4l (ribosomal protein S4-like)	no change with or without drug
Angptl4 (angiopoietin-like 4)	low cell count with and without drug
Timp1 (tissue inhibitor of metalloproteinase 1)	no change with or without drug

The results go on.
Target gene	combined z-score class	viability z-score with doxorubicin	viability z-score without drug
Tex11 (testis expressed gene 11)	no change with or without drug	-1.12	-0.51
Cypt3 (cysteine-rich perinuclear theca 3)	low cell count without drug only	-0.9	-2.19
Guf1 (GUF1 homolog, GTPase)	no change with or without drug	-0.67	-0.51
Or5w10 (olfactory receptor family 5 subfamily W member 10)	no change with or without drug	1.35	0.17
Epm2aip1 (EPM2A interacting protein 1)	no change with or without drug	0	-0.51
Susd3 (sushi domain containing 3)	no change with or without drug	-1.8	0.17
Dhrs11 (dehydrogenase/reductase 11)	no change with or without drug	-0.22	-0.84
Rabgap1 (RAB GTPase activating protein 1)	no change with or without drug	0.56	-0.84
Zswim2 (zinc finger SWIM-type containing 2)	no change with or without drug	0.34	-0.17
Zkscan3 (zinc finger with KRAB and SCAN domains 3)	no change with or without drug	0.45	1.69
Unc5c (unc-5 netrin receptor C)	no change with or without drug	-0.22	-0.51
Mfap3l (microfibrillar-associated protein 3-like)	no change with or without drug	0.56	-0.51
Twf2 (twinfilin actin binding protein 2)	no change with or without drug	-0.67	-0.51
Lamp3 (lysosomal-associated membrane protein 3)	no change with or without drug	-0.67	0.34
Gm4922 (predicted gene 4922)	no change with or without drug	0.45	-0.17
Map3k11 (mitogen-activated protein kinase kinase kinase 11)	no change with or without drug	0	-0.67
Pex19 (peroxisomal biogenesis factor 19)	no change with or without drug	1.57	0.51
